# According to PubChem BioAssay AID194 (DTP/NCI, 2004):
# The list does not hold the whole screen: it is rich in T/C values a quarter to a half above the control, in often repeated tests (any T/C) and in doses without a T/C. Other doses and runs of a compound stand elsewhere. T/C gives the treated animals as a percentage of the vehicle group. Schedules are NCI's codes, read here as Q, the interval in days (D) or hours (H), X, the number of doses. Some entries hold several experiments; their values stand side by side, smallest first. Some T/C values carry the count of animals alive at the toxicity check (mostly the fifth day); without a count, all were alive then. Some entries give survivors of the animals treated and no T/C: the source files T/C as zero there, which appears to mark a toxic dose or a test without result, not a measured value. Some survivor counts are full or nearly so, which does not show that the dose was tolerated: survival well below the control is almost never listed, so the zero probably covers shortened survival too. Counts of survivors are from the toxicity check (mostly the fifth day) where no day follows; animals may have died later. For survival time, the PubChem record calls one and a half times the control and up active, and a quarter to a half above the control has no call in these data; cut-offs in other NCI protocols can differ. Additions like (4×) say how often a value occurs here.
# Tested on: BDF1 mice, B16 melanoma s.c., survival/tumor T/C
# Test: NCI In Vivo Anticancer Drug Screen. Data for tumor model B16 Melanoma (subcutaneous) in B6D2F1 (BDF1) mice
# Procedure: The antitumor activity of compounds was measured in mice bearing transplantable tumors. Survival or tumor size were measured and the results are expressed as the measurement made in the treated group (T) divided by the measurement made in the vehicle treated control group (C). The tumor model used in this assay is B16 Melanoma (subcutaneous) in B6D2F1 (BDF1) mice
# [1] = T/C endpoint: median survival time, dose: 2.0 mg/kg/injection, schedule: Q01DX009 (ip), vehicle: saline, higher T/C = longer survival
# [2] = T/C endpoint: median survival time, dose: 8.0 mg/kg/injection, schedule: Q01DX009 (ip), vehicle: saline, higher T/C = longer survival
# [3] = T/C endpoint: median survival time, dose: 25.0 mg/kg/injection, schedule: Q01DX001 (ip), vehicle: Klucel (hydroxypropylcellulose) (HPC), higher T/C = longer survival
# [4] = T/C endpoint: median survival time, dose: 32.0 mg/kg/injection, schedule: Q01DX009 (ip), vehicle: Klucel (hydroxypropylcellulose) (HPC), higher T/C = longer survival
# [5] = T/C endpoint: median survival time, dose: 50.0 mg/kg/injection, schedule: Q01DX001 (ip), vehicle: Klucel (hydroxypropylcellulose) (HPC), higher T/C = longer survival
# [6] = T/C endpoint: median survival time, dose: 100.0 mg/kg/injection, schedule: Q01DX001 (ip), vehicle: Klucel (hydroxypropylcellulose) (HPC), higher T/C = longer survival
structure (smiles),measurement,setting,value
CCC(=O)OCC(=O)[C@]1(O)Cc2c(O)c3c(c(O)c2[C@@H](OC2CC(N)C(O)C(C)O2)C1)C(=O)c1c(OC)cccc1C3=O (stereo partly specified),survivor count,[1],10 of 10
same,survivor count,"T/C endpoint: median survival time, dose: 4.0 mg/kg/injection, schedule: Q01DX009 (ip), vehicle: saline, higher T/C = longer survival",10 of 10
same,survivor count,[2],10 of 10
CCCCS(=O)CC(CO)NC(=O)/C=C/c1c(C)[nH]c(=O)[nH]c1=O (stereo unspecified),T/C,"T/C endpoint: median survival time, dose: 2.5 mg/kg/injection, schedule: Q01DX009 (ip), vehicle: water, higher T/C = longer survival",139 % of control [9 of 10 alive]
same,survivor count,"T/C endpoint: median survival time, dose: 20.0 mg/kg/injection, schedule: Q01DX009 (ip), vehicle: water, higher T/C = longer survival",4 of 10
COC(=O)Nc1cccc(-c2nc3ccc(NC(=O)OC)cc3c(=O)n2-c2ccccc2)c1,survivor count,"T/C endpoint: median survival time, dose: 200.0 mg/kg/injection, schedule: Q04DX005 (ip), vehicle: other, higher T/C = longer survival",5 of 9
same,T/C,"T/C endpoint: median survival time, dose: 400.0 mg/kg/injection, schedule: Q04DX005 (oral), vehicle: other, higher T/C = longer survival",128 % of control
CCSC(=O)N1c2ccc(OC)cc2C=CC1C#N (stereo unspecified),T/C,"T/C endpoint: median survival time, dose: 400.0 mg/kg/injection, schedule: Q01DX009 (ip), vehicle: saline with Tween-80, higher T/C = longer survival",139 % of control
O=CC(NC(=O)N(CCCl)N=O)C(O)C(O)C(O)CO (stereo unspecified),T/C,[1],125 % of control
same,survivor count,"T/C endpoint: median survival time, dose: 30.0 mg/kg/injection, schedule: Q01DX001 (ip), vehicle: saline, higher T/C = longer survival",12 of 12
same,survivor count,"T/C endpoint: median survival time, dose: 45.0 mg/kg/injection, schedule: Q01DX001 (ip), vehicle: saline, higher T/C = longer survival",12 of 12
same,survivor count,"T/C endpoint: median survival time, dose: 67.0 mg/kg/injection, schedule: Q01DX001 (ip), vehicle: saline, higher T/C = longer survival",9 of 12
c1ccc(-c2csc3c4ccccc4c4ccccc4[n+]23)cc1,T/C,"T/C endpoint: median survival time, dose: 2.0 mg/kg/injection, schedule: Q01DX009 (ip), vehicle: suspension in saline, higher T/C = longer survival",128 % of control [9 of 10 alive]
same,T/C,"T/C endpoint: median survival time, dose: 4.0 mg/kg/injection, schedule: Q01DX009 (ip), vehicle: suspension in saline, higher T/C = longer survival",128 % of control
Cc1c(N)nc(C(CC(N)=O)NCC(N)C(N)=O)nc1C(=O)NC(C(=O)NC(C)C(O)C(C)C(=O)NC(C(=O)NCCc1nc(-c2nc(C(=O)NCCCNCCCc3ccccn3)cs2)cs1)C(C)O)C(OC1OC(CO)C(O)C(O)C1OC1OC(CO)C(O)C(OC(N)=O)C1O)c1cnc[nH]1 (stereo unspecified),T/C,"T/C endpoint: median survival time, dose: 0.8 mg/kg/injection, schedule: Q01DX010 (ip), vehicle: water, higher T/C = longer survival",127 and 129 % of control
same,T/C,"T/C endpoint: median survival time, dose: 1.6 mg/kg/injection, schedule: Q01DX010 (ip), vehicle: water, higher T/C = longer survival",131 % of control
CC1=C(/C=C/C(C)=C/C=C/C(C)=C/CO)C(C)(C)CCC1,survivor count,"T/C endpoint: median survival time, dose: 4.0 mg/kg/injection, schedule: Q01DX009 (ip), vehicle: saline with Tween-80, higher T/C = longer survival",10 of 10
same,survivor count,"T/C endpoint: median survival time, dose: 8.0 mg/kg/injection, schedule: Q01DX009 (ip), vehicle: saline with Tween-80, higher T/C = longer survival",10 of 10
same,T/C,"T/C endpoint: median survival time, dose: 64.0 mg/kg/injection, schedule: Q01DX009 (ip), vehicle: saline with Tween-80, higher T/C = longer survival",126 % of control
same,survivor count,"T/C endpoint: median survival time, dose: 128.0 mg/kg/injection, schedule: Q01DX009 (ip), vehicle: saline with Tween-80, higher T/C = longer survival",9 of 10 and 10 of 10
CC1(C)N=C(N)N=C(N)N1c1ccc(CNC(=O)Nc2cccc(S(=O)(=O)F)c2)cc1,T/C,"T/C endpoint: median survival time, dose: 150.0 mg/kg/injection, schedule: Q04DX003 (ip), vehicle: saline, higher T/C = longer survival",125 % of control
O=c1[nH]c(=O)n([C@H]2CCCO2)cc1F,survivor count,"T/C endpoint: median survival time, dose: 108.0 mg/kg/injection, schedule: Q01DX009 (ip), vehicle: saline, higher T/C = longer survival",10 of 10
same,survivor count,"T/C endpoint: median survival time, dose: 300.0 mg/kg/injection, schedule: Q04DX003 (ip), vehicle: saline, higher T/C = longer survival",10 of 10
same,survivor count,"T/C endpoint: median survival time, dose: 500.0 mg/kg/injection, schedule: Q04DX003 (ip), vehicle: saline, higher T/C = longer survival",10 of 10
same,survivor count,"T/C endpoint: median survival time, dose: 833.0 mg/kg/injection, schedule: Q04DX003 (ip), vehicle: saline, higher T/C = longer survival",10 of 10
N/C(=N\Cl)C(Cl)(Cl)Cl,survivor count,"T/C endpoint: median survival time, dose: 25.0 mg/kg/injection, schedule: Q01DX009 (ip), vehicle: saline with Tween-80, higher T/C = longer survival",10 of 10
Cc1cc(OCc2nc(N)nc(N)c2-c2ccc(Cl)c(Cl)c2)ccc1NS(=O)(=O)c1cccc(S(=O)(=O)F)c1,T/C,"T/C endpoint: median survival time, dose: 264.0 mg/kg/injection, schedule: Q04DX003 (ip), vehicle: saline, higher T/C = longer survival",145 % of control
same,survivor count,"T/C endpoint: median survival time, dose: 400.0 mg/kg/injection, schedule: Q04DX003 (ip), vehicle: saline, higher T/C = longer survival",6 of 6
NC(C/[N+]([O-])=N/O)C(=O)O (stereo unspecified),T/C,"T/C endpoint: median survival time, dose: 19.8 mg/kg/injection, schedule: Q01DX010 (ip), vehicle: alkali diluted with saline, evaluated on day 58, higher T/C = longer survival",141 % of control
same,T/C,"T/C endpoint: median survival time, dose: 19.8 mg/kg/injection, schedule: Q01DX010 (ip), vehicle: alkali diluted with saline, evaluated on day 90, higher T/C = longer survival",148 % of control
same,survivor count,"T/C endpoint: median survival time, dose: 60.0 mg/kg/injection, schedule: Q01DX009 (ip), vehicle: Klucel (hydroxypropylcellulose) (HPC), higher T/C = longer survival",9 of 10
same,survivor count,"T/C endpoint: median survival time, dose: 66.7 mg/kg/injection, schedule: Q01DX010 (ip), vehicle: alkali diluted with saline, higher T/C = longer survival",6 of 10 on day 58
same,survivor count,"T/C endpoint: median survival time, dose: 90.0 mg/kg/injection, schedule: Q01DX009 (ip), vehicle: Klucel (hydroxypropylcellulose) (HPC), higher T/C = longer survival",10 of 10
same,survivor count,"T/C endpoint: median survival time, dose: 100.0 mg/kg/injection, schedule: Q01DX010 (ip), vehicle: alkali diluted with saline, higher T/C = longer survival",2 of 10 on day 58 and 10 of 10
same,survivor count,"T/C endpoint: median survival time, dose: 200.0 mg/kg/injection, schedule: Q04DX003 (ip), vehicle: Klucel (hydroxypropylcellulose) (HPC), higher T/C = longer survival",10 of 10
same,survivor count,"T/C endpoint: median survival time, dose: 450.0 mg/kg/injection, schedule: Q04DX003 (ip), vehicle: Klucel (hydroxypropylcellulose) (HPC), higher T/C = longer survival",10 of 10
same,survivor count,"T/C endpoint: median survival time, dose: 750.0 mg/kg/injection, schedule: Q01DX001 (ip), vehicle: Klucel (hydroxypropylcellulose) (HPC), higher T/C = longer survival",6 of 10
O=NN(CCCl)C(=O)NC1CCCCC1,T/C,"T/C endpoint: median survival time, dose: 4.0 mg/kg/injection, schedule: Q01DX009 (ip), vehicle: Klucel (hydroxypropylcellulose) (HPC), higher T/C = longer survival","100, 108, 110 (2×), 114, 119, 135, 167 % of control"
same,T/C,"T/C endpoint: median survival time, dose: 8.0 mg/kg/injection, schedule: Q01DX009 (ip), vehicle: Klucel (hydroxypropylcellulose) (HPC), higher T/C = longer survival","101, 113, 123, 151, 152, 156 (2×), 185 % of control"
same,T/C,[2],136 % of control
same,T/C,"T/C endpoint: median survival time, dose: 12.5 mg/kg/injection, schedule: Q01DX001 (ip), vehicle: Klucel (hydroxypropylcellulose) (HPC), higher T/C = longer survival","92, 98, 111, 114, 167 % of control"
same,T/C,"T/C endpoint: median survival time, dose: 16.0 mg/kg/injection, schedule: Q01DX009 (ip), vehicle: Klucel (hydroxypropylcellulose) (HPC), higher T/C = longer survival","86, 109, 112, 128, 155, 174, 179, 230 % of control"
same,survivor count,"T/C endpoint: median survival time, dose: 24.0 mg/kg/injection, schedule: Q01DX007 (ip), vehicle: Klucel (hydroxypropylcellulose) (HPC), higher T/C = longer survival",2 of 10 on day 55
same,T/C,[3],"101, 104, 118, 128, 136, 139, 153 % of control"
same,survivor count,[3],5 of 6 and 6 of 6
same,T/C,[4],"86, 90, 96, 98, 110 % of control"
same,survivor count,[4],10 of 10 and 6 of 6
same,survivor count,"T/C endpoint: median survival time, dose: 40.0 mg/kg/injection, schedule: Q01DX007 (ip), vehicle: Klucel (hydroxypropylcellulose) (HPC), higher T/C = longer survival",1 of 10 on day 55
same,T/C,[5],"95, 114 (2×), 119, 154, 155, 180, 230 % of control"
same,survivor count,[5],6 of 6
same,survivor count,"T/C endpoint: median survival time, dose: 64.0 mg/kg/injection, schedule: Q01DX009 (ip), vehicle: Klucel (hydroxypropylcellulose) (HPC), higher T/C = longer survival",8 of 10
same,T/C,[6],102 and 116 % of control (2×)
same,survivor count,[6],5 of 6 and 6 of 6
same,T/C,"T/C endpoint: median tumor weight (est.), dose: 25.0 mg/kg/injection, schedule: Q01DX001 (ip), vehicle: Klucel (hydroxypropylcellulose) (HPC), evaluated on day 14, higher T/C = larger tumour",370 % of control
same,T/C,"T/C endpoint: median tumor weight (est.), dose: 25.0 mg/kg/injection, schedule: Q01DX001 (ip), vehicle: Klucel (hydroxypropylcellulose) (HPC), evaluated on day 15, higher T/C = larger tumour",7 and 131 % of control
same,T/C,"T/C endpoint: median tumor weight (est.), dose: 25.0 mg/kg/injection, schedule: Q01DX001 (ip), vehicle: Klucel (hydroxypropylcellulose) (HPC), evaluated on day 18, higher T/C = larger tumour",41 % of control [5 of 6 alive]
same,T/C,"T/C endpoint: median tumor weight (est.), dose: 50.0 mg/kg/injection, schedule: Q01DX001 (ip), vehicle: Klucel (hydroxypropylcellulose) (HPC), evaluated on day 14, higher T/C = larger tumour",145 % of control
same,T/C,"T/C endpoint: median tumor weight (est.), dose: 50.0 mg/kg/injection, schedule: Q01DX001 (ip), vehicle: Klucel (hydroxypropylcellulose) (HPC), evaluated on day 15, higher T/C = larger tumour",142 % of control
same,T/C,"T/C endpoint: median tumor weight (est.), dose: 100.0 mg/kg/injection, schedule: Q01DX001 (ip), vehicle: Klucel (hydroxypropylcellulose) (HPC), evaluated on day 15, higher T/C = larger tumour",131 % of control
CN(N=O)C(N)=O,survivor count,"T/C endpoint: median survival time, dose: 25.0 mg/kg/injection, schedule: Q01DX009 (ip), vehicle: saline, higher T/C = longer survival",10 of 10
same,survivor count,"T/C endpoint: median survival time, dose: 50.0 mg/kg/injection, schedule: Q01DX009 (ip), vehicle: saline, higher T/C = longer survival",10 of 10
